PubChem BioAssay AID504808, Drosophila RNAi Screening Center, 2011

- Screen: 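Genes whose loss lifts activity of an E2F-responsive reporter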 (primary screen)
- Cells: Drosophila S2 cells
- Reagent: long dsRNA against Drosophila genes
- Read-out: 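Dual luciferase plate measurements; E2F-specific signal taken as firefly over Renilla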
- Reading the numbers: E2F firefly: higher = more E2F reporter activity; Renilla normaliser: higher = more normaliser reporter signal
- Hit rule: 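Called active if the normalised E2F reporter went up by over 50%; the cutoff is arbitrary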
The deposit covers about 21,000 reagents; shown is a random part of those that have a named target and a result. Of all reagents, 18 (0.084%) are marked active. 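Raw counts without plate normalisation, one of two replicates; the ratio scores behind the calls were not deposited.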 A number with no mark means an inactive call. The numbers tell different reagents against one gene apart. Names joined by + are all predicted targets of the reagent. Not given: the amount of reagent, the time to read-out.

| gene | reagent no. | E2F firefly, rep 1 | Renilla normaliser, rep 1 |
| --- | --- | --- | --- |
| CG30447 | 1 | 1.58e5 | 5679 |
| Nnk | 1 | 1.36e5 | 7746 |
| dyl | 1 | 63760 | 3792 |
| dyl | 2 | 85496 | 3454 |
| Sur | 1 | 82063 | 3230 |
| ktub | 1 | 85822 | 3453 |
| Ate1 | 1 | 83302 | 3253 |
| Eip74EF | 1 | 50032 | 3475 |
| Eip74EF | 2 | 1.43e5 | 7009 |
| ftz-f1 | 1 | 1.50e5 | 7616 |
| CG32236 | 1 | 1.21e5 | 4516 |
| CG17159 + CG17162 | 1 | 1.25e5 | 6047 |
| CG17159 + CG17162 | 2 | 1.36e5 | 6710 |
| Poxn | 1 | 1.36e5 | 4621 |
| Poxn | 2 | 1.52e5 | 4825 |
| Skp2 | 1 | 71472 | 4015 |
| Zdhhc8 | 1 | 1.22e5 | 5326 |
| Zdhhc8 | 2 | 1.20e5 | 6040 |
| CG8607 | 1 | 97171 | 4349 |
| CG12241 | 1 | 63256 | 3194 |
| Vps53 | 1 | 82492 | 3468 |
| Npc1a | 1 | 1.68e5 | 5724 |
| CG10474 | 1 | 1.42e5 | 4746 |
| CG42562 | 1 | 1.35e5 | 3996 |
| CG34304 (retired record) | 1 | 58768 | 4639 |
| Takl1 | 1 | 83836 | 2552 |
| CG1688 | 1 | 2771 | 174 |
| slif | 1 | 69860 | 3371 |
| m | 1 | 66378 | 4795 |
| dpr12 | 1 | 1.18e5 | 5611 |
| dpr12 | 2 | 1.17e5 | 4887 |
| dpr12 | 3 | 1.20e5 | 5025 |
| CG6685 | 1 | 1.27e5 | 6548 |
| drpr | 1 | 88738 | 3768 |
| drpr | 2 | 90078 | 4152 |
| CG4849 | 1 | 1178 | 1016 |
| Pal2 | 1 | 1.02e5 | 4462 |
| CstF64 | 1 | 1.33e5 | 7208 |
| CG12883 | 1 | 1.25e5 | 5868 |
| CG14983 | 1 | 97325 | 4368 |
| CG9890 | 1 | 1.01e5 | 4549 |
| CG9849 | 1 | 1.12e5 | 3929 |
| ppk26 | 1 | 97542 | 4072 |
| Acsx1R | 1 | 1.32e5 | 6600 |
| armi | 1 | 98996 | 4011 |
| GILT2 | 1 | 75111 | 3675 |
| CG17177 | 1 | 1.49e5 | 6524 |
| cv-2 | 1 | 1.21e5 | 4698 |
| cv-2 | 2 | 99503 | 4268 |
| CG13744 | 1 | 1.33e5 | 4647 |
| CG18787 + CG18789 | 1 | 1.01e5 | 4014 |
| CG43775 | 1 | 1.19e5 | 4894 |
| CG33298 | 1 | 1.50e5 | 5153 |
| CG33298 | 2 | 87912 | 3357 |
| CG8840 | 1 | 1.44e5 | 4549 |
| FarO | 1 | 1.26e5 | 6126 |
| ref(2)P | 1 | 98570 | 4534 |
| CG34171 | 1 | 1.30e5 | 4828 |
| CG34251 | 1 | 1.35e5 | 3650 |
| CG34251 | 2 | 1.53e5 | 4121 |
| Or24a | 1 | 1.44e5 | 4916 |
| CG31125 | 1 | 81891 | 2707 |
| Gr10a | 1 | 79374 | 2743 |
| CG9114 | 1 | 1.43e5 | 4883 |
| CG8564 | 1 | 68309 | 3089 |
| Or71a | 1 | 1.67e5 | 9023 |
| CG13078 | 1 | 1.03e5 | 4501 |
| klhl10 | 1 | 1.29e5 | 5512 |
| klhl10 | 2 | 94186 | 3120 |
| klhl10 | 3 | 1.41e5 | 6276 |
| klhl10 | 4 | 1.30e5 | 4437 |
| Hel89B | 1 | 68796 | 2952 |
| CR18275 + CG13373 | 1 | 42759 | 4219 |
| Prosalpha2 | 1 | 83135 | 6899 |
| asun | 1 | 80366 | 3122 |
| CG6912 | 1 | 1.09e5 | 6148 |
| Dysb | 1 | 1.70e5 | 7104 |
| Ir21a | 1 | 1.51e5 | 4977 |
| CG7924 | 1 | 81015 | 3649 |
| kin17 | 1 | 1.12e5 | 7794 |
| Grl62a | 1 | 1.24e5 | 4646 |
| Nox | 1 | 1.41e5 | 5361 |
| Nox | 2 | 1.32e5 | 5112 |
| CG15029 (retired record) | 1 | 1.31e5 | 5839 |

Only “Renilla normaliser, rep 1”, for 4 of the entries above:
CG18787 + CG18789	4014
CG43775	4894
CG33298 #1	5153
CG33298 #2	3357
